{"source": "patent US10293023B2", "about": "“Method of altering vascular permeability and uses thereof” (CHILDREN'S MEDICAL CENTER CORPORATION, priority 2013, dated 2019)", "tested_on": "collagen", "assay": "Hydroxyproline in lung tissue or serum (Hydroxyproline assay kit)", "assay_type": "in vivo, mice"}
{"smiles": "N#CCCN", "note": "[BAPN, beta-aminopropionitrile]", "values": [{"measurement": "lung hydroxyproline levels", "setting": "2 week treatment, measure of collagen present in tissue", "result": "did not significantly alter"}, {"measurement": "hydroxyproline levels in serum", "setting": "p>0.05, measure of collagen turnover", "result": "no change"}, {"measurement": "collagen protein levels or degradation (measured by quantitating hydroxproline levels)", "setting": "treated mice", "result": "could not detect any change"}]}
